According to the supplement of paper PMC7661543:
Differences between knockout arms are mostly noise.

Tested on: SKBR3
Experiment: relative cell number vs DMSO control (72 h) (% of DMSO); higher = less growth inhibition (more cells)
Experimental: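 QMAP-Seq: a pool of 5 breast cancer cell lines (ZR-75-1, SKBR3, HCC-38, MDA-MB-231, BT-20), each carrying 12 doxycycline-inducible Cas9 sgRNA perturbations (11 knockouts plus non-targeting sgNT), was treated with compounds for 72 h at four 10-fold doses (10 nM-10 uM or 1 nM-1 uM range). Barcodes were amplified and sequenced, and cell number was interpolated from 293T spike-in standard curves. The result is expressed as % of the median of DMSO wells. Two biological replicates.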

CN1CCN(CCCN2c3ccccc3Sc3ccc(C(F)(F)F)cc32)CC1 [Trifluoperazine]
Conditions | relative cell number
sgRNA knockout: sgATF3, 10 nM | 64.1
sgRNA knockout: sgATF3, 100 nM | 100
sgRNA knockout: sgATF3, 1000 nM | 98.2
sgRNA knockout: sgATF3, 10000 nM | 51.16
sgRNA knockout: sgATF4, 10 nM | 92.9
sgRNA knockout: sgATF4, 100 nM | 88.6
sgRNA knockout: sgATF4, 1000 nM | 94.8
sgRNA knockout: sgATF4, 10000 nM | 47.8
sgRNA knockout: sgATF6, 10 nM | 70.9
sgRNA knockout: sgATF6, 100 nM | 81.3
sgRNA knockout: sgATF6, 1000 nM | 84.1
sgRNA knockout: sgATF6, 10000 nM | 53
sgRNA knockout: sgATG7, 10 nM | 67.5
sgRNA knockout: sgATG7, 100 nM | 84.7
sgRNA knockout: sgATG7, 1000 nM | 92.6
sgRNA knockout: sgATG7, 10000 nM | 50.6
sgRNA knockout: sgERN1, 10 nM | 68.5
sgRNA knockout: sgERN1, 100 nM | 82.6
sgRNA knockout: sgERN1, 1000 nM | 80.3
sgRNA knockout: sgERN1, 10000 nM | 52.4
sgRNA knockout: sgHSF1, 10 nM | 83.3
sgRNA knockout: sgHSF1, 100 nM | 72.5
sgRNA knockout: sgHSF1, 1000 nM | 73.7
sgRNA knockout: sgHSF1, 10000 nM | 48.5
sgRNA knockout: sgHSF2, 10 nM | 81.6
sgRNA knockout: sgHSF2, 100 nM | 72.4
sgRNA knockout: sgHSF2, 1000 nM | 91
sgRNA knockout: sgHSF2, 10000 nM | 45.4
sgRNA knockout: sgKEAP1, 10 nM | 84.4
sgRNA knockout: sgKEAP1, 100 nM | 93.7
sgRNA knockout: sgKEAP1, 1000 nM | 95.9
sgRNA knockout: sgKEAP1, 10000 nM | 58.6
sgRNA knockout: sgNFE2L2, 10 nM | 70.5
sgRNA knockout: sgNFE2L2, 100 nM | 88.2
sgRNA knockout: sgNFE2L2, 1000 nM | 89.2
sgRNA knockout: sgNFE2L2, 10000 nM | 51.2
sgRNA knockout: sgSLC35F2, 10 nM | 87.233
sgRNA knockout: sgSLC35F2, 100 nM | 93.4
sgRNA knockout: sgSLC35F2, 1000 nM | 73.4
sgRNA knockout: sgSLC35F2, 10000 nM | 46.9
sgRNA knockout: sgXBP1, 10 nM | 93.1
sgRNA knockout: sgXBP1, 100 nM | 108
sgRNA knockout: sgXBP1, 1000 nM | 93.2
sgRNA knockout: sgXBP1, 10000 nM | 58.4

CN1CCc2c(c3ccccc3n2Cc2ccc(C(=O)NO)cc2)C1 [TubastatinA]
Conditions | relative cell number
sgRNA knockout: sgATF3, 10 nM | 67.3
sgRNA knockout: sgATF3, 100 nM | 76.5
sgRNA knockout: sgATF3, 1000 nM | 85.6
sgRNA knockout: sgATF3, 10000 nM | 22.8
sgRNA knockout: sgATF4, 10 nM | 114
sgRNA knockout: sgATF4, 100 nM | 101
sgRNA knockout: sgATF4, 1000 nM | 93.2
sgRNA knockout: sgATF4, 10000 nM | 33.9
sgRNA knockout: sgATF6, 10 nM | 98
sgRNA knockout: sgATF6, 100 nM | 82.1
sgRNA knockout: sgATF6, 1000 nM | 87.05
sgRNA knockout: sgATF6, 10000 nM | 27.8
sgRNA knockout: sgATG7, 10 nM | 103
sgRNA knockout: sgATG7, 100 nM | 86.4
sgRNA knockout: sgATG7, 1000 nM | 90.6
sgRNA knockout: sgATG7, 10000 nM | 34.7
sgRNA knockout: sgERN1, 10 nM | 70.9
sgRNA knockout: sgERN1, 100 nM | 94.4
sgRNA knockout: sgERN1, 1000 nM | 87.2
sgRNA knockout: sgERN1, 10000 nM | 37
sgRNA knockout: sgHSF1, 10 nM | 94.2
sgRNA knockout: sgHSF1, 100 nM | 85.6
sgRNA knockout: sgHSF1, 1000 nM | 74.9
sgRNA knockout: sgHSF1, 10000 nM | 20.6
sgRNA knockout: sgHSF2, 10 nM | 79.98
sgRNA knockout: sgHSF2, 100 nM | 92.4
sgRNA knockout: sgHSF2, 1000 nM | 91.1
sgRNA knockout: sgHSF2, 10000 nM | 31.3
sgRNA knockout: sgKEAP1, 10 nM | 91.3
sgRNA knockout: sgKEAP1, 100 nM | 80.6
sgRNA knockout: sgKEAP1, 1000 nM | 65.46
sgRNA knockout: sgKEAP1, 10000 nM | 27.8
sgRNA knockout: sgNFE2L2, 10 nM | 101
sgRNA knockout: sgNFE2L2, 100 nM | 88.6
sgRNA knockout: sgNFE2L2, 1000 nM | 90.2
sgRNA knockout: sgNFE2L2, 10000 nM | 35.2
sgRNA knockout: sgSLC35F2, 10 nM | 76.9
sgRNA knockout: sgSLC35F2, 100 nM | 74.7
sgRNA knockout: sgSLC35F2, 1000 nM | 102
sgRNA knockout: sgSLC35F2, 10000 nM | 28.9
sgRNA knockout: sgXBP1, 10 nM | 117
sgRNA knockout: sgXBP1, 100 nM | 71.1
sgRNA knockout: sgXBP1, 1000 nM | 97.8
sgRNA knockout: sgXBP1, 10000 nM | 22.9

CCC[C@H](NC(=O)/C(C#N)=C/c1cccc(Br)n1)c1ccccc1 [WP1130]
Conditions | relative cell number
sgRNA knockout: sgATF3, 10 nM | 99.9
sgRNA knockout: sgATF3, 100 nM | 109
sgRNA knockout: sgATF3, 1000 nM | 91.1
sgRNA knockout: sgATF3, 10000 nM | 5.42
sgRNA knockout: sgATF4, 10 nM | 94
sgRNA knockout: sgATF4, 100 nM | 94.8
sgRNA knockout: sgATF4, 1000 nM | 91.9
sgRNA knockout: sgATF4, 10000 nM | 7.67
sgRNA knockout: sgATF6, 10 nM | 104
sgRNA knockout: sgATF6, 100 nM | 82.6
sgRNA knockout: sgATF6, 1000 nM | 99.8
sgRNA knockout: sgATF6, 10000 nM | 9.44
sgRNA knockout: sgATG7, 10 nM | 100
sgRNA knockout: sgATG7, 100 nM | 112
sgRNA knockout: sgATG7, 1000 nM | 102
sgRNA knockout: sgATG7, 10000 nM | 5.67
sgRNA knockout: sgERN1, 10 nM | 115
sgRNA knockout: sgERN1, 100 nM | 86.6
sgRNA knockout: sgERN1, 1000 nM | 92.4
sgRNA knockout: sgERN1, 10000 nM | 9.67
sgRNA knockout: sgHSF1, 10 nM | 95.9
sgRNA knockout: sgHSF1, 100 nM | 92.3
sgRNA knockout: sgHSF1, 1000 nM | 94.2
sgRNA knockout: sgHSF1, 10000 nM | 7.8
sgRNA knockout: sgHSF2, 10 nM | 104
sgRNA knockout: sgHSF2, 100 nM | 101.7
sgRNA knockout: sgHSF2, 1000 nM | 99.1
sgRNA knockout: sgHSF2, 10000 nM | 8.44
sgRNA knockout: sgKEAP1, 10 nM | 100
sgRNA knockout: sgKEAP1, 100 nM | 105
sgRNA knockout: sgKEAP1, 1000 nM | 89.3
sgRNA knockout: sgKEAP1, 10000 nM | 6.17
sgRNA knockout: sgNFE2L2, 10 nM | 89.6
sgRNA knockout: sgNFE2L2, 100 nM | 92.6
sgRNA knockout: sgNFE2L2, 1000 nM | 101
sgRNA knockout: sgNFE2L2, 10000 nM | 8.01
sgRNA knockout: sgSLC35F2, 10 nM | 103
sgRNA knockout: sgSLC35F2, 100 nM | 81.9
sgRNA knockout: sgSLC35F2, 1000 nM | 86.7
sgRNA knockout: sgSLC35F2, 10000 nM | 8.19
sgRNA knockout: sgXBP1, 10 nM | 112
sgRNA knockout: sgXBP1, 100 nM | 84
sgRNA knockout: sgXBP1, 1000 nM | 87.2
sgRNA knockout: sgXBP1, 10000 nM | 10
